Experimental data from PubChem BioAssay AID2417 (National Center for Advancing Translational Sciences (NCATS), 2010).
In all, about 140,000 compounds went through this assay and about 4,300 (3.1%) were called active. This list was built around the results that the source calls inconclusive (neither active nor inactive); the mix of calls is not that of the screen.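 How the source made its calls: active means readout at or below -70, meaning at least 70% loss of cells showing the perinucleolar compartment, a nuclear body marking cancer cells; inconclusive means readout between -30 and a set limit; inactive means the rest.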

Experiment: High Content Assay for Compounds that inhibit the Assembly of the Perinucleolar Compartment;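 further: plate controls were DMSO wells for no effect and camptothecin positive control wells for full effect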
Details: PC3M PTB-GFP, PNC prevalence imaging, 16 h; at 10 µM; hits give low values
In short: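 PC3M cells stably expressing PTB-GFP, 750–1000 cells/well, treated 16 h at 37 °C with compound (23 nl of library stock), in duplicate. After paraformaldehyde fixation and Hoechst stain, imaged at 20x; PNC prevalence scored by image analysis.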

SMILES | activity change (PNC), negative = inhibition
N#Cc1ccc(-c2ccccc2)nc1SCC(=O)c1cc2ccccc2oc1=O | inconclusive: -34.4%
COc1ccc(Cn2nnnc2C(c2ccc(N(C)C)cc2)N2CCC(C)CC2)cc1 (configuration not stated) | inactive: 18.5%
CCC(C(=O)N1CCc2ccccc2C1)n1nc(C)n2c(cc3occc32)c1=O (configuration not stated) | inactive: -30%
COc1ccc(C(C(=O)NC2CCCC2)N(C(=O)c2ccoc2C)c2ccc(C)c(C)c2)cc1 (configuration not stated) | inconclusive: -66.3%
CC(=O)c1c(N2CCN(c3ccc(F)cc3)CC2)nc(=S)n(-c2ccccc2)c1C | inconclusive: -30.4%
C1=Nc2c(Nc3ccccc3)ncnc2Oc2ccccc21 | inconclusive: -58.1%
O=C(CSc1nc(-c2ccccc2)c(-c2ccccc2)[nH]1)Nc1nccs1 | inactive: 29.8%
CCCN(Cc1ccccc1)C(=S)Nc1ccc(OC(F)F)cc1 | inconclusive: -53.2%
CCOC(=O)c1cccc(NC(=O)CSc2nnnn2CC)c1 | inconclusive: -42.1%
CC1CCN(c2c(NCc3ccc(C(=O)NCCc4ccc(Cl)cc4)cc3)c(=O)c2=O)CC1 | inactive: 2.29%
C[C@](N)(Cc1ccc(O)c(O)c1)C(=O)O | inactive: 19.7%
O=C(NC1CC2CCCC(C1)N2CC(=O)N1CCCc2ccccc21)C1CCCCC1 (configuration not stated) | inactive: 46.3%
Cn1cnnc1Sc1nc2ccccc2nc1NS(=O)(=O)c1ccccc1 | inconclusive: -50.9%
O=C1C2CC=CCC2C(=O)N1c1n[nH]c(Cc2ccccc2)n1 (configuration not stated) | inactive: 9.31%
Cn1c(COc2ccccc2)nnc1SCC(=O)NCc1ccccc1 | inconclusive: -51%
CC(C)(C)c1nc(SCC(=O)Nc2ccc3c(c2)OCCO3)c2ccccc2n1 | inconclusive: -42.5%
COc1ccc(/C=c2/sc3nc(-c4ccccc4)c(-c4ccccc4)n3c2=O)cc1 | inactive: 16.6%
COc1ccc2c(=O)c(N3C(=O)c4ccccc4C3=O)coc2c1 | inconclusive: -31.3%
CC(C)C(=O)Nc1nnn(C)n1 | inconclusive: -57.9%

SMILES | activity change (PNC), negative = inhibition
O=C(CCS(=O)(=O)c1ccc(Br)s1)NCc1ccc2c(c1)OCO2 | inconclusive: -44.4%
O=C(NCc1ccc2c(c1)OCO2)C1CCC(CNS(=O)(=O)c2cccc3nsnc23)CC1 (configuration not stated) | inconclusive: -60.5%
CC(C)c1ccc(/C=C/C(=O)NCCC2=CCCCC2)cc1 | inconclusive: -37.3%
COC(=O)c1cccc(Nc2nc3ccccc3nc2C)c1 | inconclusive: -77.4%
CCc1ccc(C2NC(=S)NC3=C2C(=O)N(c2ccccc2OC)C(c2ccc(CC)cc2)N3)cc1 (configuration not stated) | inactive: 31.6%
O=C(NCc1ccc2c(c1)OCO2)c1ccc(NS(=O)(=O)c2ccc3c(c2)OCCO3)cc1 | inconclusive: -41.5%
CCc1ccccc1OCCCCCNCCO | inconclusive: -36.8%
COc1cc(C)ccc1OCCOCCOc1cc(C)c(C)cc1Br | inactive: -3.75%
Cc1ccc(SCCC(=O)NCC2CCCO2)cc1 (configuration not stated) | active: -115%
C/C(=N/Nc1cc(-c2ccccc2)nc(-c2ccccc2)n1)c1ccc(O)cc1 | inactive: 110%
Cc1c(C(=O)OCC2CCCO2)[nH]c2c1C(=O)CC(c1ccc(N(C)C)cc1)C2 (configuration not stated) | inactive: -7.11%
COc1ccc(OC)c(S(=O)(=O)N2CCC(C(=O)N3CCN(Cc4ccccc4)CC3)CC2)c1 | active: -80.4%
Cc1cc(C(=O)c2ccccc2)c(NC(=O)CCl)s1 | inconclusive: -48.6%
COc1cccc(C2=NN(C(=O)c3ccccc3)C(O)(C(F)(F)F)C2)c1 (configuration not stated) | inconclusive: -63.9%
Fc1ccc(-c2csc3ncnc(N4CCc5ccccc5C4)c23)cc1 | inconclusive: -50.7%
CCOC(=O)Cc1cc(=O)n2[nH]c(-c3ccc(Cl)cc3)cc2n1 | inconclusive: -61.9%
COc1ccc(NS(=O)(=O)c2cccc(C(=O)N/N=C(\C)c3ccncc3)c2)cc1 | active: -91.3%
Cc1ccc(C)c(CS(=O)(=O)c2cn(CC(=O)N3CCC(C)CC3)c3ccccc23)c1 | inconclusive: -50.6%
Cc1onc(-c2ccccc2)c1C(=O)N1CCOCC1 | active: -109%

SMILES | activity change (PNC), negative = inhibition
Cc1ccc(S(=O)(=O)NCC(C)NS(=O)(=O)c2ccc(C)cc2)cc1 (configuration not stated) | inconclusive: -40.4%
Cc1ccc(OCC(=O)NCc2ccco2)cc1C | inconclusive: -40.8%
CC(C)(O)C#Cc1ccc(C(=O)N2CCN(c3ccccc3)CC2)cc1 | inconclusive: -69%
COc1ccc2cc(C(=O)NCC(=O)O)sc(=O)c2c1OC | inactive: 96.9%
CCC(=O)N/N=C/c1ccc(OS(=O)(=O)c2ccccc2)cc1 | inconclusive: -42.6%
N#CC1=C(N)SC(N)=C(C#N)C1c1c(Cl)cccc1Cl | inconclusive: -44.5%
COC(=O)c1ccc2c(c1)SC1=C(CCCC1=O)N2 | inactive: 23.1%
CCOC(=O)N1CCN(C(=O)c2ccc3c(=O)n(-c4ccc(OC)cc4OC)c(=S)[nH]c3c2)CC1 | inactive: 34.4%
Cc1ccc2[nH]c(=O)c(CNS(=O)(=O)c3ccccc3)c(-c3ccccc3)c2c1 | inactive: 21.7%
c1ccc(SCc2nc(-c3ccncc3)no2)cc1 | inconclusive: -46%
Cc1ccc(S(=O)(=O)Nc2ccc(Cl)cc2)cc1NC(=O)c1cc2c(s1)CCCC2 | inactive: 54.8%
O=C(O)c1cnc(-c2ccccc2)nc1Sc1ccccc1 | inactive: 66.9%
CCn1c(-c2ccc(N)cc2)nc2ccccc21 | inactive: -6.78%
Cc1ccc(-c2n[nH]c(=O)c3ccccc23)cc1S(=O)(=O)N(C)CCO | inconclusive: -35.9%
COc1ccc(-c2nc(CS(=O)CC(=O)NCc3cccnc3)c(C)o2)cc1 (configuration not stated) | inconclusive: -56.6%
CC(C)=CCC/C(C)=C/C=N/NC(=O)c1ccccc1[N+](=O)[O-] | inactive: -9.87%
Cc1nn(S(=O)(=O)N2CCCCC2)c(C)c1Br | inconclusive: -60.8%
CCOc1ccccc1NC(=O)Cn1nnc(-c2ccc(OCC)c(OCC)c2)n1 | inconclusive: -51.5%
Cc1cccn2c(=O)c3cc(C#N)c(=N)n(Cc4ccncc4)c3nc12 | inconclusive: -46.1%

Shown tab-delimited: 15 of the compounds above
SMILES	activity change (PNC), negative = inhibition
CC(C)(O)C#Cc1ccc(C(=O)N2CCN(c3ccccc3)CC2)cc1	inconclusive: -69%
COc1ccc2cc(C(=O)NCC(=O)O)sc(=O)c2c1OC	inactive: 96.9%
CCC(=O)N/N=C/c1ccc(OS(=O)(=O)c2ccccc2)cc1	inconclusive: -42.6%
N#CC1=C(N)SC(N)=C(C#N)C1c1c(Cl)cccc1Cl	inconclusive: -44.5%
COC(=O)c1ccc2c(c1)SC1=C(CCCC1=O)N2	inactive: 23.1%
CCOC(=O)N1CCN(C(=O)c2ccc3c(=O)n(-c4ccc(OC)cc4OC)c(=S)[nH]c3c2)CC1	inactive: 34.4%
Cc1ccc2[nH]c(=O)c(CNS(=O)(=O)c3ccccc3)c(-c3ccccc3)c2c1	inactive: 21.7%
c1ccc(SCc2nc(-c3ccncc3)no2)cc1	inconclusive: -46%
Cc1ccc(S(=O)(=O)Nc2ccc(Cl)cc2)cc1NC(=O)c1cc2c(s1)CCCC2	inactive: 54.8%
O=C(O)c1cnc(-c2ccccc2)nc1Sc1ccccc1	inactive: 66.9%
CCn1c(-c2ccc(N)cc2)nc2ccccc21	inactive: -6.78%
Cc1ccc(-c2n[nH]c(=O)c3ccccc23)cc1S(=O)(=O)N(C)CCO	inconclusive: -35.9%
COc1ccc(-c2nc(CS(=O)CC(=O)NCc3cccnc3)c(C)o2)cc1 (configuration not stated)	inconclusive: -56.6%
CC(C)=CCC/C(C)=C/C=N/NC(=O)c1ccccc1[N+](=O)[O-]	inactive: -9.87%
Cc1nn(S(=O)(=O)N2CCCCC2)c(C)c1Br	inconclusive: -60.8%

Arranged by length of the SMILES (low to high): some entries from above.
SMILES | activity change (PNC), negative = inhibition
c1ccc(SCc2nc(-c3ccncc3)no2)cc1 | inconclusive: -46%
O=C(CSc1nc(-c2ccccc2)c(-c2ccccc2)[nH]1)Nc1nccs1 | inactive: 29.8%
Cc1ccc2[nH]c(=O)c(CNS(=O)(=O)c3ccccc3)c(-c3ccccc3)c2c1 | inactive: 21.7%
